No constants are given. Whether binding was seen depends on the method and setting. In cells and extracts the contact can be indirect. Some binding calls cover weakened binding; strength is not graded here. For some assays here: Where a sequence is shown, tags or fusion partners need not be part of it.

These results are taken from PMC11840411, “GS2 cooperates with IPA1 to control panicle architecture” (The New Phytologist, 2025).

Assay [1] concerns the target T1, Flag-IPA1 (rice (Oryza sativa)) (UniProt Q7EXZ2).
T1 sequence: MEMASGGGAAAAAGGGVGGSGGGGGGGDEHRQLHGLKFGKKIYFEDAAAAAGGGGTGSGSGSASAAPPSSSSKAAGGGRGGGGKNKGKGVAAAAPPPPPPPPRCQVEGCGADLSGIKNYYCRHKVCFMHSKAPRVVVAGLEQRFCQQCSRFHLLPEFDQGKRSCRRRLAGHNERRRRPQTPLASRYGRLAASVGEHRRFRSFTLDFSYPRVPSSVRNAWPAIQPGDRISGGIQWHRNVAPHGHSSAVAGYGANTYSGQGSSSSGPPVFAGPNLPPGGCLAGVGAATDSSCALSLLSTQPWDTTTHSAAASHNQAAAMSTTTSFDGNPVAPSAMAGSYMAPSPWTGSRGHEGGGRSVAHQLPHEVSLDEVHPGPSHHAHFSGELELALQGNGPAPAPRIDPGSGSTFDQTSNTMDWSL
Briefly: co-IP; HA-GS2 and Flag-IPA1 co-transformed into rice protoplasts for 24 h; extract incubated with Flag beads at 4°C for 2 h; 150 mM NaCl, 50 mM Tris-HCl pH 7.5; blots with Flag and HA antibodies.

The target of assay [2] is T2, IPA1-YN (rice (Oryza sativa)) (UniProt Q7EXZ2).
T2 sequence: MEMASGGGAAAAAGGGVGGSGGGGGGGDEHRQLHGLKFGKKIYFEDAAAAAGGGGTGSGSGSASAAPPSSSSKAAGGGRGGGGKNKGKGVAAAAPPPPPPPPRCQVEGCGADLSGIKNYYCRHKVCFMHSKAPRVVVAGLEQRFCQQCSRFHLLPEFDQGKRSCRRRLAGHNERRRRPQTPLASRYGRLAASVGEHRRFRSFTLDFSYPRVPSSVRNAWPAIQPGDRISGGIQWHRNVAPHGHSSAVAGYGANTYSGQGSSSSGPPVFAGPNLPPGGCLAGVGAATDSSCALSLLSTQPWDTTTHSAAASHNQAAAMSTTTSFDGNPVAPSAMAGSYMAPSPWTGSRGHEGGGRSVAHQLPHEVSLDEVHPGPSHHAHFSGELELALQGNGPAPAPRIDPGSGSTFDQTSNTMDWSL
Briefly: split reporter; BiFC; GS2-YC and IPA1-YN co-infiltrated into leaves of Nicotiana benthamiana; confocal microscopy.

B1: HA-GS2 (protein, UniProt Q6ZIK5 1-394)
chain: MAMPYASLSPAVADHRSSPAAATASLLPFCRSTPLSAGGGGVAMGEDAPMTARWPPAAAARLPPFTAAQYEELEQQALIYKYLVAGVPVPPDLVLPIRRGLDSLAARFYNHPALGYGPYFGKKLDPEPGRCRRTDGKKWRCSKEAAPDSKYCERHMHRGRNRSRKPVETQLVAQSQPPSSVVGSAAAPLAAASNGSSFQNHSLYPAIAGSNGGGGGRNMPSSFGSALGSQLHMDNAAPYAAVGGGTGKDLRYTAYGTRSLADEQSQLITEAINTSIENPWRLLPSQNSPFPLSSYSQLGALSDLGQNTPSSLSKVQRQPLSFFGNDYAAVDSVKQENQTLRPFFDEWPKGRDSWSDLADENANLSSFSGTQLSISIPMASSDFSAASSRSTNGD
As for B1, the binding entry in assay [1] was “binds”.

B2: GS2-YC (protein, UniProt Q6ZIK5 1-394)
chain: MAMPYASLSPAVADHRSSPAAATASLLPFCRSTPLSAGGGGVAMGEDAPMTARWPPAAAARLPPFTAAQYEELEQQALIYKYLVAGVPVPPDLVLPIRRGLDSLAARFYNHPALGYGPYFGKKLDPEPGRCRRTDGKKWRCSKEAAPDSKYCERHMHRGRNRSRKPVETQLVAQSQPPSSVVGSAAAPLAAASNGSSFQNHSLYPAIAGSNGGGGGRNMPSSFGSALGSQLHMDNAAPYAAVGGGTGKDLRYTAYGTRSLADEQSQLITEAINTSIENPWRLLPSQNSPFPLSSYSQLGALSDLGQNTPSSLSKVQRQPLSFFGNDYAAVDSVKQENQTLRPFFDEWPKGRDSWSDLADENANLSSFSGTQLSISIPMASSDFSAASSRSTNGD
In the case of B2, the binding entry in assay [2] is “binds”.
